Some of the results follow. These are raw signals, not scaled to a control.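 First-pass screen: polymyxin B was added at a level that permeabilizes the Salmonella outer membrane while sparing the inner membrane. DMSO wells, with and without polymyxin B, defined maximum growth. Because plates differed from one another, each plate's data were ranked separately and the compounds with the lowest OD600 were carried forward as hits.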
Tested on: Salmonella enterica serovar Typhimurium SL1344
Test: bacterial growth OD600 after 18 h with compound and polymyxin B; higher = more bacterial growth (less inhibition)
Details: 50 µM, Mueller-Hinton broth

Question: For `COc1ccc2c(c1)OC(C)CN(CCC(=O)NCc1cc(F)ccc1C)C2` (stereo unspecified), which “bacterial growth OD600” value (polymyxin B 0.75 µg/mL) is on record?
Answer: 0.815

Question: How did the “bacterial growth OD600” value (polymyxin B 0.75 µg/mL) turn out when `O=C1CCCN1CCCC(=O)N1CCCC(CCc2cccc(F)c2)C1` (stereo unspecified) was run?
Answer: 0.932

Question: Which “bacterial growth OD600” value (polymyxin B 0.75 µg/mL) does the source give for `CC(C)CNC(=O)c1cn(C(C)C)cc(C(=O)N2CCN(c3cccc(C(F)(F)F)c3)CC2)c1=O` here?
Answer: 0.768

Question: For `CCCCNC(=O)C1CCCN(C2CCN(C(=O)C3CC3)CC2)C1` (stereo unspecified), which “bacterial growth OD600” value (polymyxin B 0.75 µg/mL) is on record?
Answer: 0.802

Question: With `O=C(CSc1ccccc1)N1CCCC(Nc2ccc(F)cc2)C1` (stereo unspecified) as the compound, how does the “bacterial growth OD600” value (polymyxin B 1 µg/mL) read?
Answer: 0.787

Question: Which “bacterial growth OD600” value (polymyxin B 0.75 µg/mL) does the source give for `CCOc1ccc2nc(N3CCCC(C(=O)NCCOc4cccnc4)C3)nc(C)c2c1` (stereo unspecified) here?
Answer: 0.005

Question: Which “bacterial growth OD600” value (polymyxin B 1 µg/mL) does the source give for `CN(Cc1c[nH]nc1-c1cc2ccccc2o1)CC1COc2ccccc2O1` (stereo unspecified) here?
Answer: 0.014

Question: Which “bacterial growth OD600” value (polymyxin B 1 µg/mL) does the source give for `O=C(Nc1ccnn1C1CCN(CC2CC=CCC2)CC1)c1ccc2c(c1)OCO2` (stereo unspecified) here?
Answer: 0.93

Question: For `COc1ccccc1-n1cc(CN2CCCC(CO)(Cc3ccccc3)C2)cn1` (stereo unspecified), which “bacterial growth OD600” value (polymyxin B 1 µg/mL) is on record?
Answer: 0.877

Question: With `Cc1ccc(CN(C)C(=O)c2cn(Cc3ccccc3F)nn2)cc1` as the compound, how does the “bacterial growth OD600” value (polymyxin B 1 µg/mL) read?
Answer: 0.573

Question: `COc1ccc(CC2(CCC(=O)N3CCN(c4ccc(Cl)cc4)CC3)CCC(=O)N2)c(F)c1` (stereo unspecified) was tested. Which “bacterial growth OD600” value (polymyxin B 0.75 µg/mL) did it give?
Answer: 0.728

Question: `COC(=O)C(CCSC)NC(=O)c1csc2nc(-c3ccccc3)cn12` (stereo unspecified) was tested. Which “bacterial growth OD600” value (polymyxin B 1 µg/mL) did it give?
Answer: 0.788

Question: For `COc1ccc(C(=O)C2CCCN(Cc3cccc4c3OCO4)C2)c(OC)c1` (stereo unspecified), which “bacterial growth OD600” value (polymyxin B 1 µg/mL) is on record?
Answer: 0.773

Question: With `COCCN1C(=O)CC(CC(=O)N(C)Cc2ccc(-n3cccn3)cc2)(c2ccccc2OC)C1=O` (stereo unspecified) as the compound, how does the “bacterial growth OD600” value (polymyxin B 0.75 µg/mL) read?
Answer: 0.846

Question: With `CC(Cc1cnccn1)NC(=O)c1cc(Cn2ccc3ccccc32)[nH]n1` (stereo unspecified) as the compound, how does the “bacterial growth OD600” value (polymyxin B 0.75 µg/mL) read?
Answer: 0.828

Question: With `O=C1N(Cc2cccc(F)c2F)CCCC1(O)CN1CCC2(CC1)OCCO2` (stereo unspecified) as the compound, how does the “bacterial growth OD600” value (polymyxin B 1 µg/mL) read?
Answer: 0.902

Question: For `Cc1nc(-c2ccncc2)ncc1C(C)NC(=O)c1ccccc1Cl` (stereo unspecified), which “bacterial growth OD600” value (polymyxin B 1 µg/mL) is on record?
Answer: 0.904

Question: Which “bacterial growth OD600” value (polymyxin B 0.75 µg/mL) does the source give for `CN(Cc1ccccc1C(F)(F)F)C(=O)CC1(c2ccccc2)CC(=O)N(Cc2cccnc2)C1=O` (stereo unspecified) here?
Answer: 0.401

Question: Which “bacterial growth OD600” value (polymyxin B 0.75 µg/mL) does the source give for `COc1ccc(F)c(CC2(CCC(=O)NCc3nc(-c4ccccc4)cs3)CCC(=O)N2)c1` (stereo unspecified) here?
Answer: 0.74

Question: With `Cc1cccc(C(=O)N2CCCC(CNC(=O)c3ccc(F)cc3)C2)n1` (stereo unspecified) as the compound, how does the “bacterial growth OD600” value (polymyxin B 1 µg/mL) read?
Answer: 0.954

Question: For `CC(C)CNc1ccc(C(=O)N2CCC(CCn3cccn3)CC2)cn1`, which “bacterial growth OD600” value (polymyxin B 0.75 µg/mL) is on record?
Answer: 0.776

Question: Which “bacterial growth OD600” value (polymyxin B 0.75 µg/mL) does the source give for `Cc1nc2ccccc2n1Cc1cc(C(=O)N2CCCCC2CCO)no1` (stereo unspecified) here?
Answer: 0.891

Question: Which “bacterial growth OD600” value (polymyxin B 0.75 µg/mL) does the source give for `Cc1oc(-c2cccc(NC(=O)C3CCCN(C)C3)c2)nc1CNC(=O)c1cccs1` (stereo unspecified) here?
Answer: 0.833

Question: `COc1ccc(C(C)N(C)C(=O)CC2(c3ccc(-c4ccccc4)cc3)CC(=O)N(C)C2=O)cc1` (stereo unspecified) was tested. Which “bacterial growth OD600” value (polymyxin B 0.75 µg/mL) did it give?
Answer: 0.017

Question: For `Cc1ncc2c(c1CNC(=O)/C=C/c1cccs1)CCN(C(=O)/C=C/c1c(F)cccc1F)C2`, which “bacterial growth OD600” value (polymyxin B 0.75 µg/mL) is on record?
Answer: 0.005

Question: Which “bacterial growth OD600” value (polymyxin B 1 µg/mL) does the source give for `Cc1ccc(C)c(-n2cc(CN3CCN(C(=O)c4nc[nH]n4)CC3)c(-c3ccccc3)n2)c1` here?
Answer: 0.586

Question: Which “bacterial growth OD600” value (polymyxin B 0.75 µg/mL) does the source give for `CCc1ncc(CN2CCC(C3CCN(c4ncccn4)CC3)C2)cn1` (stereo unspecified) here?
Answer: 0.788

Question: For `O[C@@H]1CN(CCCn2cccn2)CC[C@H]1N1CCN(c2ccccn2)CC1`, which “bacterial growth OD600” value (polymyxin B 1 µg/mL) is on record?
Answer: 1.3

Question: How did the “bacterial growth OD600” value (polymyxin B 0.75 µg/mL) turn out when `Cc1cnc(C)c(-c2ccc3c(c2)CC(CNC(=O)c2ccc(OC(C)C)cc2)O3)n1` (stereo unspecified) was run?
Answer: 0.438

Question: `CCC(C)n1cc(C(=O)NC2CCN(Cc3ccccc3)CC2)c(=O)c(C(=O)N2CCCCCC2)c1` (stereo unspecified) was tested. Which “bacterial growth OD600” value (polymyxin B 0.75 µg/mL) did it give?
Answer: 0.877

Question: Which “bacterial growth OD600” value (polymyxin B 1 µg/mL) does the source give for `CCc1ccc(CN(C)c2nncc(-c3cccc(F)c3)n2)nc1` here?
Answer: 0.167
